No constants are given. Whether binding was seen depends on the method and setting. Binding seen in cells or lysates may run through a third protein. Some results given as binding are weak or reduced against the parent protein; the word gives no strength.
Tests used:
[1] = biological target: T1, transcription factor ETS-1 (human (endogenous in HUVEC)) (UniProt P14921); assay: co-IP; total proteins from HUVECs; immunoprecipitation with antibodies against the endogenous proteins, then immunoblotting
T1 sequence: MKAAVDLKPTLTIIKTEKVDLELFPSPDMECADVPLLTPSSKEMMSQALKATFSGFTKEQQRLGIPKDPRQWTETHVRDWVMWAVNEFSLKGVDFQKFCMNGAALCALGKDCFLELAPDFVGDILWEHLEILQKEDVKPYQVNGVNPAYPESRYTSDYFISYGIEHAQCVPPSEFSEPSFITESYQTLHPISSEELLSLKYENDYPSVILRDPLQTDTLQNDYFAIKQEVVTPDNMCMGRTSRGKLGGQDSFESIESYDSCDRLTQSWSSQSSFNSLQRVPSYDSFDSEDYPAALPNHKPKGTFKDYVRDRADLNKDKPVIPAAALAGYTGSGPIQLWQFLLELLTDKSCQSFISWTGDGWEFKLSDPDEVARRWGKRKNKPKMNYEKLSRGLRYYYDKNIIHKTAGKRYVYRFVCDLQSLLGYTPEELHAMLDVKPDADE

By UniProt entry, the sequences of proteins in these tests, tags left out.
UniProt Q8TEK3: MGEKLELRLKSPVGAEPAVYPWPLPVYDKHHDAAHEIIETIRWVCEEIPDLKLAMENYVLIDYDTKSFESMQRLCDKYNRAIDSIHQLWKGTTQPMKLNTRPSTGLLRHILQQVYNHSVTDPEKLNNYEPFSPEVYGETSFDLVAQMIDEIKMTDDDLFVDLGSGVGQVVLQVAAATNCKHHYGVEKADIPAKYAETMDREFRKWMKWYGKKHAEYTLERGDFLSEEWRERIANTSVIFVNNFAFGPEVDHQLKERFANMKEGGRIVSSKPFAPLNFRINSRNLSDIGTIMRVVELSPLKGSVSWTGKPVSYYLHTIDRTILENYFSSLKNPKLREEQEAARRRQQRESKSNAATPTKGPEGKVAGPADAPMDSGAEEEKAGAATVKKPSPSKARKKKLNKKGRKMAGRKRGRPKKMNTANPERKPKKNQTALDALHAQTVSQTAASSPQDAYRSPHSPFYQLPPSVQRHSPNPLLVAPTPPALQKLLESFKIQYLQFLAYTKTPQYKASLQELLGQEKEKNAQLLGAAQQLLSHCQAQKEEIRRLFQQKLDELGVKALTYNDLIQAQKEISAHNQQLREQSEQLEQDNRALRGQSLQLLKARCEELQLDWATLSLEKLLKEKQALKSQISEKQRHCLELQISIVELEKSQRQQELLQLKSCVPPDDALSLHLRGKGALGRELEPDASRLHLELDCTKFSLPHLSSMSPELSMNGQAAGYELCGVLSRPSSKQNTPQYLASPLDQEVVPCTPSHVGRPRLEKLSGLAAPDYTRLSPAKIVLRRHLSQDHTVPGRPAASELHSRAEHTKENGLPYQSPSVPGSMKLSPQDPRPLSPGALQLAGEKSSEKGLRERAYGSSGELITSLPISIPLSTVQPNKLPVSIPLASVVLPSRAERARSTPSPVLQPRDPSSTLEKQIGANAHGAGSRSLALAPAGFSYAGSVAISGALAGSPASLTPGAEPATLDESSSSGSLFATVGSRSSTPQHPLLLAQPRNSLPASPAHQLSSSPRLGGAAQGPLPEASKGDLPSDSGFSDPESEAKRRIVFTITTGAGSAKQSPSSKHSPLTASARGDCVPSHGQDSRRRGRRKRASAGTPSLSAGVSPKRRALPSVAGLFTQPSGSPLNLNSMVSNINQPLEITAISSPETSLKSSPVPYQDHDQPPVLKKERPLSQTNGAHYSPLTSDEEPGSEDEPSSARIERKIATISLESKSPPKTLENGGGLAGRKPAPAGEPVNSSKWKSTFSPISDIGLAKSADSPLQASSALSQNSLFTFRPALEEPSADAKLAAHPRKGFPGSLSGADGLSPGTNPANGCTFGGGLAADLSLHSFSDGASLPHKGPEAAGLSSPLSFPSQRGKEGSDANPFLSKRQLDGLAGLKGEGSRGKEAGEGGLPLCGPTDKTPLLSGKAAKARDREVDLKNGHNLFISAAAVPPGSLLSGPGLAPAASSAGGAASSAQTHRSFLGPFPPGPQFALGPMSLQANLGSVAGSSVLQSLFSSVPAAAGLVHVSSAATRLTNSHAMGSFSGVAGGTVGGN
UniProt P17542: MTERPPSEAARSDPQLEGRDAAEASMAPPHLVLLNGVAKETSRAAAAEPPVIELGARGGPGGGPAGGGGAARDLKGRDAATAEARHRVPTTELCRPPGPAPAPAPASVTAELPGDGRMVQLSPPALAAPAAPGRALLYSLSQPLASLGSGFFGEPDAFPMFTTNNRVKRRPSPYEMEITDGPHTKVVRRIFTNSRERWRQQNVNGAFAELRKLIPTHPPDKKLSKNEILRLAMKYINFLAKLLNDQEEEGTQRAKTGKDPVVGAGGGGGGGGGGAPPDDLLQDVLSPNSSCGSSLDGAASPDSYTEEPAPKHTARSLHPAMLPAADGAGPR

[2] = biological target: DOT1L (DOT1-like histone H3K79 methyltransferase) (human (endogenous in HUVEC)) (UniProt Q8TEK3); assay: as above

Row | Substance | binding [1] | binding [2]
1 | DOT1L (DOT1-like histone H3K79 methyltransferase) (from UniProt Q8TEK3 1-1537) | binds | 
2 | TAL-1 (from UniProt P17542 1-331) |  | no binding

From article PMC5342507
